Results from the supplement of paper PMC12823440, “Inhibitors supercharge kinase turnover through native proteolytic circuits” (Nature, 2025).
Where a name gives a salt, the structure may show the parent alone. This is one part of the list. Hit calls seldom repeat between salt and free forms of one compound.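 In K562 cells expressing nanoluciferase-fused kinases, luminescence was recorded at 4 h intervals between 2 and 18 h, normalized as percent of control with DMSO at 100% and a positive control at 0%. A significant (2 sigma) signal drop marks a time point as decreased. The authors' rule for a hit is not shown and takes in more than the number of time points.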

Protein sequences, listed by entry. Tags and fused reporters are not part of them. Lines headed by an entry give the natural chain unless they say otherwise; changes in a name come on top.
UniProt P50613: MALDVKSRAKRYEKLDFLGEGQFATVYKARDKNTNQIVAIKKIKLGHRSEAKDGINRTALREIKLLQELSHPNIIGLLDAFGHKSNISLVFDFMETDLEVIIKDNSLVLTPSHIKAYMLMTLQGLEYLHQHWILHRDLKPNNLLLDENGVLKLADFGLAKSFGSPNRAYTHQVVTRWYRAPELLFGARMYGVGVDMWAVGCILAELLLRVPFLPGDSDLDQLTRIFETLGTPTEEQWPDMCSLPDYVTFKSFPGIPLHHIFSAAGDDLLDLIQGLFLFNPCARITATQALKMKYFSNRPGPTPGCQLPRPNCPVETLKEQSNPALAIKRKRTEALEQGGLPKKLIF
UniProt P50750, whole entry: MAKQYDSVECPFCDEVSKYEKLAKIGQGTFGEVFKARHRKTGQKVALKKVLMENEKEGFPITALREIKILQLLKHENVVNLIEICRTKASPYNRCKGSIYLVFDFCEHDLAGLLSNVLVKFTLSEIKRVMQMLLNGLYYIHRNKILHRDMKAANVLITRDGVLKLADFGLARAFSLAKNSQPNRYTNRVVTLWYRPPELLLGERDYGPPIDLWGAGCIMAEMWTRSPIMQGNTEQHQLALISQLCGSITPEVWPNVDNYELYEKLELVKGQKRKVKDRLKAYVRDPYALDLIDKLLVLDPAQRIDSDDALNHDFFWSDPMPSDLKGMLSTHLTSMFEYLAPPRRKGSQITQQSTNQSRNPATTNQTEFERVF
UniProt O96017, whole entry: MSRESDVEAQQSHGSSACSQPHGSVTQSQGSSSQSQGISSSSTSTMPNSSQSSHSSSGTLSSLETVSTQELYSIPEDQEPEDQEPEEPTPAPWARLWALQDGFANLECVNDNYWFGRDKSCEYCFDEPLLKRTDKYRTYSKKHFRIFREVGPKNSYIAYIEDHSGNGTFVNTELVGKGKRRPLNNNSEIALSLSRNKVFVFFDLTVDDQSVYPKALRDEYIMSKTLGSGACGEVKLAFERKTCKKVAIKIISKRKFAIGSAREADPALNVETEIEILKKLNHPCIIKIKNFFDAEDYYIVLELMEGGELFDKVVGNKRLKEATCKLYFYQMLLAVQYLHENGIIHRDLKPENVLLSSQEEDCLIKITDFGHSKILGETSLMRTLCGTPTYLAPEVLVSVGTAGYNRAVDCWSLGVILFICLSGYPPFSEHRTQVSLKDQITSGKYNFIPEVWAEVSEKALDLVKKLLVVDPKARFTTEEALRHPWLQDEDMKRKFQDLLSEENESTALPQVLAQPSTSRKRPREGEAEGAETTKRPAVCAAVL
UniProt P07333, whole entry: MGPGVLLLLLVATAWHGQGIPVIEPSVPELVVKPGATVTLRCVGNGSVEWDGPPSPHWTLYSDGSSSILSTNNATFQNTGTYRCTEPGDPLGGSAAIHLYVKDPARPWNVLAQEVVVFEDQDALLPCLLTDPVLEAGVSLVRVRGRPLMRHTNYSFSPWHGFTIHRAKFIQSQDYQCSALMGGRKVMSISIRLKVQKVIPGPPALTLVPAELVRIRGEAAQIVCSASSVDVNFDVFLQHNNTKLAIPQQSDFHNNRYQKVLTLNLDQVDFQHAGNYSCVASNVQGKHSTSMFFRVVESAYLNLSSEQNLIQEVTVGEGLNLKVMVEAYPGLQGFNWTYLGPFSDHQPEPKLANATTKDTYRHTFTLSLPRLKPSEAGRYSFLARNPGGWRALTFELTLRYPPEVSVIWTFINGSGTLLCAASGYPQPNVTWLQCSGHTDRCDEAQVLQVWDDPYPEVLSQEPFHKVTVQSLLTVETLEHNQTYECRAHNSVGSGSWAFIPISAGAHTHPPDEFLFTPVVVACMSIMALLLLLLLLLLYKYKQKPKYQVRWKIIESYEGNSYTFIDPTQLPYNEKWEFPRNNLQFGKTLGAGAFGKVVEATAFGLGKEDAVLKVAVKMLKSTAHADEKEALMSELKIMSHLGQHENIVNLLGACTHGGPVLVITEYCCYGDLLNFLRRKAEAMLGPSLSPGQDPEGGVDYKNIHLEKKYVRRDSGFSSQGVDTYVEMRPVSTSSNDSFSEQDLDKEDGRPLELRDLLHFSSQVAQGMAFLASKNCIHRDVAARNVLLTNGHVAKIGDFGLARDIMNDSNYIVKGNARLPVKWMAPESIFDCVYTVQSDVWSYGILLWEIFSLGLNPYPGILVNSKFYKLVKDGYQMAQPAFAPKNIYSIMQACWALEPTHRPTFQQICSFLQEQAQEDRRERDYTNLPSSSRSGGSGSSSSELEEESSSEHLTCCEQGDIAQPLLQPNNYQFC
UniProt P41240: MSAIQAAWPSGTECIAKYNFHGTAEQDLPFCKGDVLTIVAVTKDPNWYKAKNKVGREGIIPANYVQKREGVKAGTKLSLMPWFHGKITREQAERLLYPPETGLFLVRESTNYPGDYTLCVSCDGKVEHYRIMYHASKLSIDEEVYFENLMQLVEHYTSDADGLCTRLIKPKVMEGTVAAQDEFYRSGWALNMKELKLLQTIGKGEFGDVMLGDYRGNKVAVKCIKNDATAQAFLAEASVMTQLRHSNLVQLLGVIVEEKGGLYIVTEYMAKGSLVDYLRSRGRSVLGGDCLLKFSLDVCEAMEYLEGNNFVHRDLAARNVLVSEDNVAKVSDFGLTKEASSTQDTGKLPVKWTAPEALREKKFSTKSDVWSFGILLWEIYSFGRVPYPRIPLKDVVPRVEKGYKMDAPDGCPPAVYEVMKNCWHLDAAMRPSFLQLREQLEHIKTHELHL
UniProt P48729: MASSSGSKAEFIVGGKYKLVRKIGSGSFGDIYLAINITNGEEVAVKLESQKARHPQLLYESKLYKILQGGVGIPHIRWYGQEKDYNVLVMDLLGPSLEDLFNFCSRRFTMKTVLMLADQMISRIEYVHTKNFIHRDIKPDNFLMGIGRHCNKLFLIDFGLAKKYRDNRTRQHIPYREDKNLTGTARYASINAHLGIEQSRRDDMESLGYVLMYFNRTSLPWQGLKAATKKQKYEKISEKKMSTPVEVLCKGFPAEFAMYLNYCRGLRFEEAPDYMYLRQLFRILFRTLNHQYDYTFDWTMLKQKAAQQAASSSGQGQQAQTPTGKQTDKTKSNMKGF
UniProt P48730: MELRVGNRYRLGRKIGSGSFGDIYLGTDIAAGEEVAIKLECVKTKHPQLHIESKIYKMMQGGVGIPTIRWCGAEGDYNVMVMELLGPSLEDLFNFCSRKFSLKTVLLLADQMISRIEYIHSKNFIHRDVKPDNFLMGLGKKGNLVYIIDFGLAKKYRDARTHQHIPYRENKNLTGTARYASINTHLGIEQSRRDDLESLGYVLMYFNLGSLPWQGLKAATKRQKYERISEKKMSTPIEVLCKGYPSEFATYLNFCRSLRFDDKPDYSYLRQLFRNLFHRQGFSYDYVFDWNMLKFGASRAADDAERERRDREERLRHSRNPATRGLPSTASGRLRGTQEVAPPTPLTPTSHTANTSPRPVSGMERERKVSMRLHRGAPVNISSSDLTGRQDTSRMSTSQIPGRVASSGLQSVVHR
UniProt Q08345: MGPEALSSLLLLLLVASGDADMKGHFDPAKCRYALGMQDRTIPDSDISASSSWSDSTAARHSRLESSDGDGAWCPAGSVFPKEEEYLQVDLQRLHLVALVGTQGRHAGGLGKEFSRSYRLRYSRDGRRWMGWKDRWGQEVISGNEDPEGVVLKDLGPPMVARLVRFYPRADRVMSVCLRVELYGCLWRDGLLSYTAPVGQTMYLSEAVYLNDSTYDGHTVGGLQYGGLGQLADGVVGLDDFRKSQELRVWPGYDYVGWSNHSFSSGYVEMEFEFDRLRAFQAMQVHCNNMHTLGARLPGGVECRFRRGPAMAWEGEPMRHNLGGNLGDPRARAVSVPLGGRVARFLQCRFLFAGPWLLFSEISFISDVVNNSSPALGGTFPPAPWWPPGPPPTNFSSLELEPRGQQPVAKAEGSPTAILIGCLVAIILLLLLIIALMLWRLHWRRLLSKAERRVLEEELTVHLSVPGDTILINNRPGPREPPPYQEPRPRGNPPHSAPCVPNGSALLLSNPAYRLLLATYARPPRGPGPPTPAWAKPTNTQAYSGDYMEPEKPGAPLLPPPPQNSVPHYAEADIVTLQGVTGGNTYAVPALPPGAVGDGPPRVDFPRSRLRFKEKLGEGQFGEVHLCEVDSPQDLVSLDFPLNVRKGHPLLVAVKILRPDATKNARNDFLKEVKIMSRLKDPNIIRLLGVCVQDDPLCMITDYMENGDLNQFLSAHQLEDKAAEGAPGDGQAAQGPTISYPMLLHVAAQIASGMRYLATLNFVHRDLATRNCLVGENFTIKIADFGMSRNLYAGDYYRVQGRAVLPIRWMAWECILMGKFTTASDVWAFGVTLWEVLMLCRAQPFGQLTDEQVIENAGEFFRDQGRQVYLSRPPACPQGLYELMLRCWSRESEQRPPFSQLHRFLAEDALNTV
UniProt Q9Y463, whole entry, looked up: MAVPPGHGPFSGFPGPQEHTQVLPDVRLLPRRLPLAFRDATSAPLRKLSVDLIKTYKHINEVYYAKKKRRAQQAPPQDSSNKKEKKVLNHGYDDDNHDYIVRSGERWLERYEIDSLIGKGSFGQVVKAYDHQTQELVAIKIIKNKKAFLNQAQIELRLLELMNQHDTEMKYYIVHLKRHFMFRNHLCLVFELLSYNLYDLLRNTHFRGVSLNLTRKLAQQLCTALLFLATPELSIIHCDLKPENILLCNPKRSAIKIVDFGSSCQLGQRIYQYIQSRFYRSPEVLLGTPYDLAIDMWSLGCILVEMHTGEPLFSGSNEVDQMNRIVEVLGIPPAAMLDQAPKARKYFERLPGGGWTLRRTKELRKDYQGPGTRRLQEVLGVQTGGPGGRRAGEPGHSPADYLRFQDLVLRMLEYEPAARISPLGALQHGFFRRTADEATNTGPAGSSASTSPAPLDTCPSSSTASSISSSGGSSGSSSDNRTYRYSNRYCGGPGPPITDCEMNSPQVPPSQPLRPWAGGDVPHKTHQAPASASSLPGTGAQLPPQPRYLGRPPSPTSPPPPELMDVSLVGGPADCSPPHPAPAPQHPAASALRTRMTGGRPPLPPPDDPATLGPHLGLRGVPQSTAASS
UniProt Q92630: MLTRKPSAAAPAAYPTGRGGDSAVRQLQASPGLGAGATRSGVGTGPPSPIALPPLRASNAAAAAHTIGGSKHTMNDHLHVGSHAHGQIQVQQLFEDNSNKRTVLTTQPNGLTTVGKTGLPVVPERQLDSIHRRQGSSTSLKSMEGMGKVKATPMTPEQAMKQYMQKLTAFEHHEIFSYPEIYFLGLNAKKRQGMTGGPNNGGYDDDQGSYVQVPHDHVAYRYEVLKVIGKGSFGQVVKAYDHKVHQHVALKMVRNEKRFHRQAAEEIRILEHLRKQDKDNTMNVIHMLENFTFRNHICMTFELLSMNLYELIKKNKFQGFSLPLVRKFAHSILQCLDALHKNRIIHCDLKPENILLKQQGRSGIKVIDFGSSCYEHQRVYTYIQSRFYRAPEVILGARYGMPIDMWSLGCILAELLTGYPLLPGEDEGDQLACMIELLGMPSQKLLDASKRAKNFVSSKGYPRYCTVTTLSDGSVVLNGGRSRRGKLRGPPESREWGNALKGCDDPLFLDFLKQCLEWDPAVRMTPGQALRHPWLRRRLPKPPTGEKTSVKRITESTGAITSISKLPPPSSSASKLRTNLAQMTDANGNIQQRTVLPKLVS

Assays:
Assay in all cases: kinase-Nluc reporter destabilization hit call (1 = scored as downregulated) (binary); higher = compound decreases kinase abundance
Details in all cases: K562, 2-18 h
CDK7 = CDK7 (UniProt P50613)
CDK9 = CDK9 (UniProt P50750)
CHEK2 = CHEK2 (UniProt O96017)
CSF1R = CSF1R (UniProt P07333)
CSK = CSK (UniProt P41240)
CSNK1A1 = CSNK1A1 (UniProt P48729)
CSNK1D = CSNK1D (UniProt P48730)
DDR1 = DDR1 (UniProt Q08345)
DYRK1B = DYRK1B (UniProt Q9Y463)
DYRK2 = DYRK2 (UniProt Q92630)

| SMILES | kinase-Nluc reporter destabilization hit call (CDK7; 2.5 µM) | kinase-Nluc reporter destabilization hit call (CDK9; 2.5 µM) | kinase-Nluc reporter destabilization hit call (CHEK2; 2.5 µM) | kinase-Nluc reporter destabilization hit call (CSF1R; 2.5 µM) | kinase-Nluc reporter destabilization hit call (CSK; 2.5 µM) | kinase-Nluc reporter destabilization hit call (CSNK1A1; 2.5 µM) | kinase-Nluc reporter destabilization hit call (CSNK1D; 2.5 µM) | kinase-Nluc reporter destabilization hit call (DDR1; 2.5 µM) | kinase-Nluc reporter destabilization hit call (DYRK1B; 2.5 µM) | kinase-Nluc reporter destabilization hit call (DYRK2; 2.5 µM) | kinase-Nluc reporter destabilization hit call (CDK7; 10 µM) | kinase-Nluc reporter destabilization hit call (CDK9; 10 µM) | kinase-Nluc reporter destabilization hit call (CHEK2; 10 µM) | kinase-Nluc reporter destabilization hit call (CSF1R; 10 µM) | kinase-Nluc reporter destabilization hit call (CSK; 10 µM) | kinase-Nluc reporter destabilization hit call (CSNK1A1; 10 µM) | kinase-Nluc reporter destabilization hit call (CSNK1D; 10 µM) | kinase-Nluc reporter destabilization hit call (DDR1; 10 µM) | kinase-Nluc reporter destabilization hit call (DYRK1B; 10 µM) | kinase-Nluc reporter destabilization hit call (DYRK2; 10 µM) |
| --- | --- | --- | --- | --- | --- | --- | --- | --- | --- | --- | --- | --- | --- | --- | --- | --- | --- | --- | --- | --- |
| CC(C)Oc1ccc(-c2nn([C@@H](C)c3oc4ccc(F)cc4c(=O)c3-c3cccc(F)c3)c3ncnc(N)c23)cc1F [Umbralisib] | inactive: 0 | inactive: 0 | inactive: 0 | inactive: 0 | inactive: 0 | inactive: 0 | inactive: 0 | inactive: 0 | inactive: 0 | inactive: 0 | – | – | – | – | – | – | – | – | – | – |
| Cc1ccc(NC(=O)c2ccc(CN3CCN(C)CC3)cc2)cc1Nc1nc(-c2cccnc2)cs1 [Masitinib] | inactive: 0 | inactive: 0 | inactive: 0 | inactive: 0 | inactive: 0 | inactive: 0 | inactive: 0 | inactive: 0 | inactive: 0 | inactive: 0 | – | – | – | – | – | – | – | – | – | – |
| N#CCNC(=O)c1ccc(-c2ccnc(Nc3ccc(N4CCOCC4)cc3)n2)cc1 [Momelotinib sulfate] | – | – | – | – | – | – | – | – | – | – | inactive: 0 | inactive: 0 | inactive: 0 | inactive: 0 | inactive: 0 | inactive: 0 | inactive: 0 | inactive: 0 | inactive: 0 | inactive: 0 |
| COc1cc2nccc(Nc3cc(OC)c(OC)c(OC)c3)c2cc1OC [GAK inhibitor 49 (hydrochloride)] | – | – | – | – | – | – | – | – | – | – | inactive: 0 | inactive: 0 | inactive: 0 | inactive: 0 | inactive: 0 | inactive: 0 | inactive: 0 | inactive: 0 | inactive: 0 | inactive: 0 |
| COCCOc1cc(F)c2c(Nc3ccc(NC(=O)Cn4cc(C(C)C)nn4)cc3)ncnc2c1 | – | – | – | – | – | – | – | – | – | – | inactive: 0 | inactive: 0 | inactive: 0 | inactive: 0 | inactive: 0 | inactive: 0 | inactive: 0 | inactive: 0 | inactive: 0 | inactive: 0 |
| Oc1cccc(-c2nc(N3CCOCC3)c3oc4ncccc4c3n2)c1 [PI-103 (Hydrochloride)] | inactive: 0 | inactive: 0 | inactive: 0 | inactive: 0 | inactive: 0 | inactive: 0 | inactive: 0 | inactive: 0 | inactive: 0 | inactive: 0 | – | – | – | – | – | – | – | – | – | – |
| N#CCNC(=O)c1ccc(-c2ccnc(Nc3ccc(N4CCOCC4)cc3)n2)cc1 [Momelotinib] | – | – | – | – | – | – | – | – | – | – | active: 1 | inactive: 0 | inactive: 0 | inactive: 0 | inactive: 0 | inactive: 0 | inactive: 0 | inactive: 0 | inactive: 0 | inactive: 0 |
| CCS(=O)(=O)N1CCN(c2ccc(Nc3ncc(C(N)=O)c(NC4CC4)n3)cc2)CC1 [Cerdulatinib] | – | – | – | – | – | – | – | – | – | – | inactive: 0 | inactive: 0 | inactive: 0 | inactive: 0 | inactive: 0 | inactive: 0 | inactive: 0 | active: 1 | inactive: 0 | inactive: 0 |
| COc1cc2c(-c3cnn4cc(N5CCC(N6CCN(C)CC6)CC5)cnc34)ccnc2cc1F | – | – | – | – | – | – | – | – | – | – | inactive: 0 | inactive: 0 | inactive: 0 | inactive: 0 | inactive: 0 | inactive: 0 | inactive: 0 | inactive: 0 | inactive: 0 | inactive: 0 |
| C#Cc1cccc(Nc2ncnc3cc4c(cc23)OCCOCCOCCO4)c1 [Icotinib (Hydrochloride)] | – | – | – | – | – | – | – | – | – | – | inactive: 0 | inactive: 0 | inactive: 0 | inactive: 0 | inactive: 0 | inactive: 0 | inactive: 0 | inactive: 0 | inactive: 0 | inactive: 0 |
| CCCCCCCCc1ccc(CCC(N)(CO)CO)cc1 [Fingolimod] | inactive: 0 | inactive: 0 | inactive: 0 | inactive: 0 | inactive: 0 | inactive: 0 | inactive: 0 | inactive: 0 | inactive: 0 | inactive: 0 | – | – | – | – | – | – | – | – | – | – |
| Cn1ncc(Cl)c1-c1cc(C(=O)N[C@H](CN)Cc2cccc(F)c2)sc1Cl [Afuresertib] | – | – | – | – | – | – | – | – | – | – | inactive: 0 | inactive: 0 | inactive: 0 | inactive: 0 | inactive: 0 | inactive: 0 | inactive: 0 | inactive: 0 | inactive: 0 | inactive: 0 |
| COc1cc(/C=C/C(=O)O)ccc1O [Ferulic acid] | – | – | – | – | – | – | – | – | – | – | inactive: 0 | inactive: 0 | inactive: 0 | inactive: 0 | inactive: 0 | inactive: 0 | inactive: 0 | inactive: 0 | inactive: 0 | inactive: 0 |
| CC(=O)Nc1cccc(-n2c(=O)n(C3CC3)c(=O)c3c(Nc4ccc(I)cc4F)n(C)c(=O)c(C)c32)c1 [Trametinib (DMSO solvate)] | – | – | – | – | – | – | – | – | – | – | inactive: 0 | inactive: 0 | inactive: 0 | inactive: 0 | inactive: 0 | inactive: 0 | inactive: 0 | inactive: 0 | inactive: 0 | inactive: 0 |
| COc1ccc(S(=O)(=O)Nc2ccccc2CN(C)C/C=C/c2ccc(Cl)cc2)cc1 [KN-92 (phosphate)] | inactive: 0 | inactive: 0 | inactive: 0 | inactive: 0 | inactive: 0 | inactive: 0 | inactive: 0 | inactive: 0 | inactive: 0 | inactive: 0 | – | – | – | – | – | – | – | – | – | – |
| Cn1cc(-c2cnc3ccc4ccc(CS(=O)(=O)NCc5ccccn5)cc4c(=O)c3c2)cn1 | – | – | – | – | – | – | – | – | – | – | inactive: 0 | inactive: 0 | inactive: 0 | inactive: 0 | inactive: 0 | inactive: 0 | inactive: 0 | inactive: 0 | inactive: 0 | inactive: 0 |
| C[C@@H](N)c1ccc(C(=O)Nc2ccnc3[nH]ccc23)cc1 | – | – | – | – | – | – | – | – | – | – | inactive: 0 | inactive: 0 | inactive: 0 | inactive: 0 | inactive: 0 | inactive: 0 | inactive: 0 | inactive: 0 | inactive: 0 | inactive: 0 |
| C[C@H](Nc1cc(-c2cnn(C)c2)cc(Nc2cnccn2)n1)c1ccc(F)cc1 [Ilginatinib] | inactive: 0 | inactive: 0 | inactive: 0 | inactive: 0 | inactive: 0 | inactive: 0 | inactive: 0 | inactive: 0 | inactive: 0 | inactive: 0 | – | – | – | – | – | – | – | – | – | – |
| O=C(Nc1ccncc1)Nc1ccc(-c2nc(N3CCOCC3)nc(N3C4CCC3COC4)n2)cc1 [PKI-179 (hydrochloride)] | inactive: 0 | inactive: 0 | inactive: 0 | inactive: 0 | inactive: 0 | inactive: 0 | inactive: 0 | inactive: 0 | inactive: 0 | inactive: 0 | – | – | – | – | – | – | – | – | – | – |
| N#CC[C@H](C1CCCC1)n1cc(-c2ncnc3[nH]ccc23)cn1 [Ruxolitinib (phosphate)] | – | – | – | – | – | – | – | – | – | – | inactive: 0 | inactive: 0 | inactive: 0 | inactive: 0 | inactive: 0 | inactive: 0 | inactive: 0 | inactive: 0 | inactive: 0 | inactive: 0 |
| CN(C)C(=O)c1cc2cnc(Nc3ccc(N4CCNCC4)cn3)nc2n1C1CCCC1 [Ribociclib hydrochloride] | inactive: 0 | inactive: 0 | inactive: 0 | inactive: 0 | inactive: 0 | inactive: 0 | inactive: 0 | inactive: 0 | inactive: 0 | inactive: 0 | – | – | – | – | – | – | – | – | – | – |
| N=C(N)NC(=O)c1nc(Cl)c(N)nc1N [Amiloride (hydrochloride)] | – | – | – | – | – | – | – | – | – | – | inactive: 0 | inactive: 0 | inactive: 0 | inactive: 0 | inactive: 0 | inactive: 0 | inactive: 0 | inactive: 0 | inactive: 0 | inactive: 0 |
| COc1ccc2c(c1)C(c1ccc(F)cc1)=C(CN1CCCC1)CO2 | – | – | – | – | – | – | – | – | – | – | inactive: 0 | inactive: 0 | inactive: 0 | inactive: 0 | inactive: 0 | inactive: 0 | inactive: 0 | inactive: 0 | inactive: 0 | inactive: 0 |
| Cc1ccc(NC(=O)c2ccc(CN3CCN(C)CC3)cc2)cc1Nc1nc(-c2cccnc2)cs1 [Masitinib (mesylate)] | inactive: 0 | inactive: 0 | inactive: 0 | inactive: 0 | inactive: 0 | inactive: 0 | inactive: 0 | inactive: 0 | inactive: 0 | inactive: 0 | – | – | – | – | – | – | – | – | – | – |
| COc1ccc(S(=O)(=O)N(CCO)c2ccccc2CN(C)C/C=C/c2ccc(Cl)cc2)cc1 [KN-93 (phosphate)] | inactive: 0 | inactive: 0 | inactive: 0 | inactive: 0 | inactive: 0 | inactive: 0 | inactive: 0 | inactive: 0 | inactive: 0 | inactive: 0 | – | – | – | – | – | – | – | – | – | – |
| C=CC(=O)Nc1cc(Nc2ncc(C(=O)OC(C)C)c(-c3cn(C)c4ccccc34)n2)c(OC)cc1N(C)CCN(C)C [Mobocertinib] | – | – | – | – | – | – | – | – | – | – | inactive: 0 | inactive: 0 | inactive: 0 | inactive: 0 | inactive: 0 | inactive: 0 | inactive: 0 | inactive: 0 | inactive: 0 | inactive: 0 |
| c1cc(-c2cnn3cc(-c4ccc(OCCN5CCCCC5)cc4)cnc23)ccn1 [Dorsomorphin (dihydrochloride)] | inactive: 0 | inactive: 0 | inactive: 0 | inactive: 0 | inactive: 0 | inactive: 0 | inactive: 0 | inactive: 0 | inactive: 0 | inactive: 0 | – | – | – | – | – | – | – | – | – | – |
| CN(C)C(=O)c1cc2cnc(Nc3ccc(N4CCNCC4)cn3)nc2n1C1CCCC1 [Ribociclib succinate hydrate] | inactive: 0 | inactive: 0 | inactive: 0 | inactive: 0 | inactive: 0 | inactive: 0 | inactive: 0 | inactive: 0 | inactive: 0 | inactive: 0 | – | – | – | – | – | – | – | – | – | – |
| CC(C)NC[C@@H](C(=O)N1CCN(c2ncnc3c2[C@H](C)C[C@H]3O)CC1)c1ccc(Cl)cc1 [Ipatasertib (dihydrochloride)] | – | – | – | – | – | – | – | – | – | – | inactive: 0 | inactive: 0 | inactive: 0 | inactive: 0 | inactive: 0 | inactive: 0 | inactive: 0 | inactive: 0 | inactive: 0 | inactive: 0 |

Pulled one by one from above:

| SMILES | kinase-Nluc reporter destabilization hit call (CDK7; 2.5 µM) | kinase-Nluc reporter destabilization hit call (CDK9; 2.5 µM) | kinase-Nluc reporter destabilization hit call (CHEK2; 2.5 µM) | kinase-Nluc reporter destabilization hit call (CSF1R; 2.5 µM) | kinase-Nluc reporter destabilization hit call (CSK; 2.5 µM) | kinase-Nluc reporter destabilization hit call (CSNK1A1; 2.5 µM) | kinase-Nluc reporter destabilization hit call (CSNK1D; 2.5 µM) | kinase-Nluc reporter destabilization hit call (DDR1; 2.5 µM) | kinase-Nluc reporter destabilization hit call (DYRK1B; 2.5 µM) | kinase-Nluc reporter destabilization hit call (DYRK2; 2.5 µM) | kinase-Nluc reporter destabilization hit call (CDK7; 10 µM) | kinase-Nluc reporter destabilization hit call (CDK9; 10 µM) | kinase-Nluc reporter destabilization hit call (CHEK2; 10 µM) | kinase-Nluc reporter destabilization hit call (CSF1R; 10 µM) | kinase-Nluc reporter destabilization hit call (CSK; 10 µM) | kinase-Nluc reporter destabilization hit call (CSNK1A1; 10 µM) | kinase-Nluc reporter destabilization hit call (CSNK1D; 10 µM) | kinase-Nluc reporter destabilization hit call (DDR1; 10 µM) | kinase-Nluc reporter destabilization hit call (DYRK1B; 10 µM) | kinase-Nluc reporter destabilization hit call (DYRK2; 10 µM) |
| --- | --- | --- | --- | --- | --- | --- | --- | --- | --- | --- | --- | --- | --- | --- | --- | --- | --- | --- | --- | --- |
| N#CC[C@H](C1CCCC1)n1cc(-c2ncnc3[nH]ccc23)cn1 [Ruxolitinib (phosphate)] | – | – | – | – | – | – | – | – | – | – | inactive: 0 | inactive: 0 | inactive: 0 | inactive: 0 | inactive: 0 | inactive: 0 | inactive: 0 | inactive: 0 | inactive: 0 | inactive: 0 |
| CN(C)C(=O)c1cc2cnc(Nc3ccc(N4CCNCC4)cn3)nc2n1C1CCCC1 [Ribociclib hydrochloride] | inactive: 0 | inactive: 0 | inactive: 0 | inactive: 0 | inactive: 0 | inactive: 0 | inactive: 0 | inactive: 0 | inactive: 0 | inactive: 0 | – | – | – | – | – | – | – | – | – | – |
